# Experimental data: PubChem BioAssay AID652243 (Drosophila RNAi Screening Center, 2013)
# Aim: 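Knock-downs that decrease or increase androgen receptor reporter signal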 (primary screen)
# Cell system: Drosophila S2R+ cells
# Knock-down reagent: long dsRNA against Drosophila genes
# Time to read-out: 72 h (48 h, then 24 h hormone)
# Challenge: synthetic androgen R1881 at 10 nM for 24 h
# Measured: 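Firefly light from an androgen-responsive reporter and Renilla control light per well, raw and unnormalised, for each of two replicates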
# Direction: firefly reporter light: higher = more light from androgen-responsive reporter; Renilla control light: higher = more constitutive control signal (cell number, transfection)
# Call rule: 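Hit when the log firefly-to-Renilla ratio dropped or increased by a fixed fold versus the mean of GFP or LacZ controls across duplicate plates; lowering cut given as 1.5 and as 3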
# Meaning of the calls: active = hit: reporter lowered or raised; inactive = no hit
# The screen tested about 24,000 reagents; this is a random part of those with a known target gene and a result. In the full data, 246 (1%) got an active call. 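Plates not normalised; calls are printed but the firefly/Renilla ratio behind them is not deposited; fold cut for lowering reported inconsistently.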 Raw values are not corrected between plates. Entries without a mark were called inactive. A plus sign joins genes that one reagent is predicted to hit. Not stated in the record: the amount of reagent.
Gene,amplicon,"firefly reporter light, replicate 1","firefly reporter light, replicate 2","Renilla control light, replicate 1","Renilla control light, replicate 2"
CG30323,DRSC07656,66518,66960,1.38e6,1.38e6
Atx2 (Ataxin-2),DRSC23010,5.58e5,5.46e5,1.29e6,1.33e6
Hand,DRSC02656,2.28e5,3.07e5,1.07e6,1.69e6
CG5742,DRSC06949,8.69e5,1.93e5,9.01e5,3.95e5
CG5742,DRSC28146,4.79e5,3.96e5,1.24e6,1.43e6
CG13239,DRSC11694,3.21e5,1.80e5,1.48e6,1.82e6
CG13898,DRSC08368,1.66e5,1.24e5,1.58e6,1.67e6
Oseg4 (Outer segment 4),DRSC08548,7.09e5,5.21e5,1.67e6,1.39e6
CG40045,DRSC21232,8.77e5,5.95e5,1.48e6,1.16e6
dib (disembodied),DRSC08711,9.55e5,9.84e5,1.13e6,1.19e6
dib (disembodied),DRSC26980,3.27e5,3.41e5,7.13e5,5.97e5
lncRNA:CR33963 (long non-coding RNA:CR33963),DRSC37787,6.30e5,5.61e5,1.55e6,1.07e6
CG4025,DRSC18523,2.54e5,3.64e5,3.25e6,3.03e6
Sirt1 (Sirtuin 1),DRSC03435,9.86e5,7.97e5,1.21e6,1.09e6
CG14834,DRSC10204,74307,75788,1.27e6,1.30e6
CG14834,DRSC28202,6.12e5,8.86e5,1.04e6,1.06e6
eIF4E6 (eukaryotic translation initiation factor 4E6),DRSC14853,2.14e5,1.69e5,2.36e6,2.60e6
eIF4E6 (eukaryotic translation initiation factor 4E6),DRSC25760,7.76e5,9.24e5,1.56e6,1.34e6
eIF4E6 (eukaryotic translation initiation factor 4E6),DRSC39077,7.70e5,6.72e5,2.20e6,2.29e6
Atac1 (Ada2a-containing complex component 1),DRSC03155,78626,1.97e5,1.10e6,1.61e6
Ir67a (Ionotropic receptor 67a),DRSC09897,53305,2.09e5,1.77e6,1.52e6
GAA1 (Glycosylphosphatidylinositol anchor attachment 1),DRSC18267,62827,59845,4.28e5,4.20e5
TTLL6A (Tubulin tyrosine ligase-like 6A),DRSC06618,1.56e5,1.52e5,2.30e6,2.19e6
TTLL6A (Tubulin tyrosine ligase-like 6A),DRSC24494,6.93e5,7.67e5,8.82e5,8.17e5
CR12628 + Mgstl,DRSC03702,2.84e5,3.12e5,1.47e6,1.14e6
CR12628 + Mgstl,DRSC20568,3.06e5,2.65e5,9.25e5,6.14e5
IFT43 (Intraflagellar transport 43),DRSC02892,9.71e5,7.59e5,2.35e6,2.20e6
atl (atlastin),DRSC16089,87442,93811,5.36e5,5.52e5
atl (atlastin),DRSC26241,4.17e5,3.79e5,7.25e5,6.88e5
CG31139,DRSC21393,9.09e5,1.08e6,3.46e5,3.61e5
Cpr (Cytochrome P450 reductase),DRSC03293,8.62e5,9.08e5,2.06e6,2.03e6
Cpr (Cytochrome P450 reductase),DRSC28411,4.02e5,6.89e5,9.28e5,1.43e6
CG6023,DRSC19970,83270,40986,6.65e5,6.74e5

Continued (3 carried over from the part before).
Gene,amplicon,"firefly reporter light, replicate 1","firefly reporter light, replicate 2","Renilla control light, replicate 1","Renilla control light, replicate 2"
Cpr (Cytochrome P450 reductase),DRSC03293,8.62e5,9.08e5,2.06e6,2.03e6
Cpr (Cytochrome P450 reductase),DRSC28411,4.02e5,6.89e5,9.28e5,1.43e6
CG6023,DRSC19970,83270,40986,6.65e5,6.74e5
Ugt302K1 (UDP-glycosyltransferase family 302 member K1),DRSC16086,776,794,,
Jhbp2 (Juvenile hormone binding protein 2),DRSC12292,80326,72037,1.96e6,2.05e6
PolG1 (DNA polymerase gamma subunit 1),DRSC03621,2.57e5,3.01e5,2.14e6,2.36e6
PolG1 (DNA polymerase gamma subunit 1),DRSC29392,3.62e5,3.27e5,9.08e5,9.08e5
CG11050,DRSC02125,2.17e5,2.93e5,8.23e5,8.66e5
CG11050,DRSC23562,7.81e5,1.07e6,9.08e5,9.70e5
Mst84Dc (Male-specific RNA 84Dc),DRSC12599,1.35e5,1.25e5,1.79e6,2.02e6
loj (logjam),DRSC09791,9.07e5,7.77e5,1.42e6,1.29e6
Ir20a (Ionotropic receptor 20a),DRSC20506,1.18e5,1.22e5,2.39e5,2.23e5
sob,DRSC00838,33356,34849,3.96e5,3.99e5
sob,DRSC25075,5.10e5,4.23e5,9.24e5,6.90e5
CG14658,DRSC12244,,277,,
tomboy40,DRSC04918,1.09e6,8.26e5,1.69e6,1.39e6
tomboy40,DRSC28442,4.39e5,9.56e5,6.61e5,9.86e5
CG16710,DRSC15136,2.23e5,2.30e5,3.01e6,1.85e6
CG15605,DRSC06558,1.07e5,1.03e5,1.34e6,1.34e6
schlank,DRSC18102,2.99e5,4.01e5,2.82e6,1.82e6
schlank,DRSC18313,3.13e5,3.48e5,3.34e6,2.79e6
miple2 (midkine and pleiotrophin 2),DRSC08723,1.23e5,95306,1.10e6,1.30e6
Psf1 (Partner of Sld Five 1),DRSC08638,2.73e5,2.25e5,1.93e6,2.24e6
Psf1 (Partner of Sld Five 1),DRSC24486,4.79e5,6.43e5,7.26e5,8.73e5
Rm62,DRSC12365,27434,30042,2.67e5,2.58e5
Rm62,DRSC25109,3.54e5,2.66e5,9.33e5,3.09e5
CG14840,DRSC14964,86784,81347,1.86e6,1.89e6
CG14840,DRSC27978,4.34e5,3.01e5,1.97e6,1.18e6
